# Measured values as given in patent US12129277 (dated 2024).
# Test: general procedure: solution-phase peptide synthesis; EDC.HCl, HOBt hydrate, DIPEA
substance,measurement,setting,value
For-MD(OtBu)GC(Trt)E(OtBu)L-OtBu,difficulty met,coupling step,found to lead to partial epimerization in the final product
same,purity (crude or final not stated),late stage modification step,67.5-77.2% and 88.8%
same,step yield,late stage modification step,75-83% and 67%
Fmoc-D(OtBu)GC(Trt)E(OtBu)L-OtBu,step yield,coupling step,about 25%
same,step yield,"coupling step, of theory",58.1% and 75.4%
Fmoc-MD(OtBu)GC(Trt)E(OtBu)L-OtBu,final purity (method not given),coupling step,95.4% and 94.1%
same,step yield,coupling step,78% and 83%
For-MDGCEL-OH,final purity (method not given),late stage modification step,98.3%

# Where “and” joins values, the source holds several entries; their conditions need not be identical. Identical values can stand only once. * marks the point of attachment. Trt = c1ccc(C(c2ccccc2)(c2ccccc2)*)cc1; Fmoc = O=C(OCC1c2ccccc2-c2ccccc21)*; OtBu = CC(C)(C)O*; For = O=C*
